Laboratory results: patent US8865704B2, “Wnt pathway antagonists” (Siena Biotech S.p.A., priority 2009, dated 2014)
Some entries share one result that the patent states for a list of compounds. At least one structure is not confirmed: it was looked up by name or label, or the drawing left a doubt.

System: Wnt-independent Renilla Luciferase (TA-Renilla) reporter in DBTRG-05MG glioblastoma cell line
Assay: Renilla read out (TA-Renilla, Wnt-independent reporter; internal control for cell number and toxicity)
Type: cell-based
Details: DBTRG-05MG cells, 24 hours after compound addition

| Structure (SMILES) | effect in the renilla read out |
| --- | --- |
| COc1ccccc1NC(=O)[C@H]1CC[C@H](CN2C(=O)Cc3ccccc3NC2=O)CC1 [Example 120] | negligible effect |
| COc1cccc2c1CN(C[C@H]1CC[C@H](C(=O)N3CCN(c4nccs4)CC3)CC1)C(=O)N2 [Example 178] | negligible effect |
| CC(=O)N1CCN(C(=O)[C@H]2CC[C@H](Cn3c(=O)c4ccccc4n(C)c3=O)CC2)CC1 [Example 52] | negligible effect |
| COCC(=O)N1CCN(C(=O)[C@H]2CC[C@H](Cn3c(=O)[nH]c4ccc(Cl)cc4c3=O)CC2)CC1 [Example 62] | negligible effect |
| Cn1c(=O)n(C[C@H]2CC[C@H](C(=O)N3CCOCC3)CC2)c2c(Cl)cccc21 [Example 164] | negligible effect |
| COc1ccc2c(c1)c(=O)n(C[C@H]1CC[C@H](C(=O)N3CCN(C(=O)[C@H]4CCCO4)CC3)CC1)c(=O)n2C [Example 131] | negligible effect |
| O=C(C1CCCC1)N1CCN(C(=O)[C@H]2CC[C@H](CN3Cc4ccccc4NC3=O)CC2)CC1 [Example 72] | negligible effect |
| COc1ccc2c(c1)c(=O)n(C[C@H]1CC[C@H](C(=O)N3CCN(C(=O)C4CCCC4)CC3)CC1)c(=O)n2C [Example 76] | negligible effect |
| COc1ccc2[nH]c(=O)n(C[C@H]3CC[C@H](C(=O)Nc4ccc5oc(C)nc5c4)CC3)c(=O)c2c1 [Example 114] | negligible effect |
| CC(=O)N1CCN(C(=O)[C@H]2CC[C@H](Cn3c(=O)n(C)c4ccc(C(F)(F)F)cc43)CC2)CC1 [Example 202] | negligible effect |
| CC(C)C(=O)N1CCN(C(=O)[C@H]2CC[C@H](Cn3c(=O)[nH]c4ccccc43)CC2)CC1 [Example 58] | negligible effect |
| COc1ccc2[nH]c(=O)n(C[C@H]3CC[C@H](C(=O)N4CCN(C(=O)C(C)C)CC4)CC3)c(=O)c2c1 [Example 3, 3-[trans-4-(4-Isobutyryl-piperazine-1-carbonyl)-cyclohexylmethyl]-6-methoxy-1H-quinazoline-2,4-dione] | negligible effect |
| O=c1[nH]c2ccccc2c(=O)n1C[C@H]1CC[C@H](C(=O)Nc2ccc3ncsc3c2)CC1 [Example 49] | negligible effect |
| O=c1[nH]c2ccccc2c(=O)n1C[C@H]1CC[C@H](C(=O)N2CCN(c3cnccn3)CC2)CC1 [Example 57] | negligible effect |
| CCCC(C)C(=O)N1CCN(C(=O)[C@H]2CC[C@H](Cn3c(=O)[nH]c4ccc(OC)cc4c3=O)CC2)CC1 (some centres unmarked) [Example 100] | negligible effect |
| COCC(=O)N1CCN(C(=O)[C@H]2CC[C@H](Cn3c(=O)[nH]c4ccc(OC)cc4c3=O)CC2)CC1 [Example 77] | negligible effect |
| COCC(=O)N1CCN(C(=O)[C@H]2CC[C@H](Cn3c(=O)[nH]c4ccc(OC)cc4c3=O)CC2)C[C@@H]1C [Example 159] | negligible effect |
| COc1ccc2[nH]c(=O)n(C[C@H]3CC[C@H](C(=O)N4CCN(C(=O)C5CCC5)CC4)CC3)c(=O)c2c1 [Example 106] | negligible effect |
| COCC(=O)N1CCN(C(=O)[C@H]2CC[C@H](Cn3c(=O)n(C)c4ccc(OC)nc43)CC2)CC1 [Example 208] | negligible effect |

| Structure (SMILES) | effect in the renilla read out |
| --- | --- |
| COCC(=O)N1CCN(C(=O)[C@H]2CC[C@H](Cn3c(=O)c4cc(OC)ccc4n(C)c3=O)CC2)[C@H](C)C1 [Example 144] | negligible effect |
| COc1ccc2[nH]c(=O)n(C[C@H]3CC[C@H](C(=O)N4CCN(C(C)=O)CC4)CC3)c(=O)c2c1 [Example 99] | negligible effect |
| COCCC(=O)N1CCN(C(=O)[C@H]2CC[C@H](Cn3c(=O)c4cc(OC)ccc4n(C)c3=O)CC2)CC1 [Example 137] | negligible effect |
| COc1ccccc1N1CCN(C(=O)[C@H]2CC[C@H](Cn3c(=O)[nH]c4ccccc4c3=O)CC2)CC1 [Example 21] | negligible effect |
| CC(=O)N1CCN(C(=O)[C@H]2CC[C@H](Cn3c(=O)n(C)c4ccc(C)nc43)CC2)CC1 [Example 207] | negligible effect |
| COc1ccc2c(c1)c(=O)n(C[C@H]1CC[C@H](C(=O)N3CCN(c4nccs4)CC3)CC1)c(=O)n2C [Example 121] | negligible effect |
| O=C(N1CCCC1)N1CCN(C(=O)[C@H]2CC[C@H](Cn3c(=O)[nH]c4ccccc4c3=O)CC2)CC1 [Example 42] | negligible effect |
| COc1ccc2c(c1)c(=O)n(C[C@H]1CC[C@H](C(=O)N3CCN(c4ccncc4)CC3)CC1)c(=O)n2C [Example 195] | negligible effect |
| CCOc1ccc2c(c1)c(=O)n(C[C@H]1CC[C@H](C(=O)Nc3ccncc3)CC1)c(=O)n2C [Example 196] | negligible effect |
| O=C(C1CCCO1)N1CCN(C(=O)[C@H]2CC[C@H](Cn3c(=O)[nH]c4ccccc4c3=O)CC2)CC1 (some centres unmarked) [Example 4, 3-{4-[4-(Tetrahydro-furan-2-carbonyl)-piperazine-1-carbonyl]-cyclohexylmethyl}-1H-quinazoline-2,4-dione] | negligible effect |
| COc1ccc2c(c1)c(=O)n(C[C@H]1CC[C@H](C(=O)N3CCN(CC4CC4)C(=O)C3)CC1)c(=O)n2C [Example 132] | negligible effect |
| COc1ccc2[nH]c(=O)n(C[C@H]3CC[C@H](C(=O)Nc4ccncc4)CC3)c(=O)c2c1 [Example 113] | negligible effect |
| COc1ccc2c(c1)c(=O)n(C[C@H]1CC[C@H](C(=O)N3CCN(C(=O)C4CC4)CC3)CC1)c(=O)n2C [Example 78] | negligible effect |
| Cc1ccc2[nH]c(=O)n(C[C@H]3CC[C@H](C(=O)N4CCN(C(=O)C(C)C)CC4)CC3)c(=O)c2c1 [Example 143] | negligible effect |
| Cc1ccc(CN2CCN(C(=O)[C@H]3CC[C@H](Cn4c(=O)[nH]c5ccccc5c4=O)CC3)CC2)o1 [Example 40] | negligible effect |
| O=C(C1CC1)N1CCN(C(=O)[C@H]2CC[C@H](Cn3c(=O)[nH]c4ccccc43)CC2)CC1 [Example 74] | negligible effect |
| O=c1[nH]c2ccc(Cl)cc2c(=O)n1C[C@H]1CC[C@H](C(=O)N2CCN(Cc3ccccc3)CC2)CC1 [Example 25] | negligible effect |
| COc1ccc2[nH]c(=O)n(C[C@H]3CC[C@H](C(=O)N4CCN(C(=O)C5CC5)[C@H](C)C4)CC3)c(=O)c2c1 [Example 157] | negligible effect |
| COCC(=O)N1CCN(C(=O)[C@H]2CC[C@H](CN3Cc4ccccc4N(C)C3=O)CC2)CC1 [Example 69] | negligible effect |

| Structure (SMILES) | effect in the renilla read out |
| --- | --- |
| CCOc1ccc2[nH]c(=O)n(C[C@H]3CC[C@H](C(=O)N4CCN(C(=O)C(C)C)CC4)CC3)c(=O)c2c1 [Example 162] | negligible effect |
| COCC(=O)N1CCN(C(=O)[C@H]2CC[C@H](Cn3c(=O)n(C)c4ccc(C)nc43)CC2)CC1 [Example 204] | negligible effect |
| COc1ccc2[nH]c(=O)n(C[C@H]3CC[C@H](C(=O)N4CCN(C(=O)C5CC5)CC4)CC3)c2c1 [Example 134] | negligible effect |
| CN1C(=O)N(C[C@H]2CC[C@H](C(=O)N3CCN(C(=O)C4CC4)CC3)CC2)Cc2ccccc21 [Example 67] | negligible effect |
| CCC(C)C(=O)N1CCN(C(=O)[C@H]2CC[C@H](Cn3c(=O)[nH]c4ccc(OC)cc4c3=O)CC2)CC1 (some centres unmarked) [Example 101] | negligible effect |
| COc1ccc2c(n1)n(C[C@H]1CC[C@H](C(=O)N3CCN(C(=O)C4CC4)CC3)CC1)c(=O)n2C [Example 166] | negligible effect |
| COCC(=O)N1CCN(C(=O)[C@H]2CC[C@H](Cn3c(=O)[nH]c4ccccc4c3=O)CC2)CC1 [Example 31] | negligible effect |
| COc1ccc(CN2CCN(C(=O)[C@H]3CC[C@H](Cn4c(=O)[nH]c5ccccc5c4=O)CC3)CC2)cc1 [Example 38] | negligible effect |
| COCCN1CCN(C(=O)[C@H]2CC[C@H](Cn3c(=O)[nH]c4ccc(OC)cc4c3=O)CC2)CC1=O [Example 88] | negligible effect |
| COc1ccc2[nH]c(=O)n(C[C@H]3CC[C@H](C(=O)N4CCCOCC4)CC3)c(=O)c2c1 [Example 90] | negligible effect |
| CCCCC(=O)N1CCN(C(=O)[C@H]2CC[C@H](Cn3c(=O)[nH]c4ccccc4c3=O)CC2)CC1 [Example 35] | negligible effect |
| COc1ccc2c(c1)c(=O)n(C[C@H]1CC[C@H](C(=O)N3CCN(C(=O)[C@@H]4CCCO4)CC3)CC1)c(=O)n2C [Example 128] | negligible effect |
| O=C(c1ccno1)N1CCN(C(=O)[C@H]2CC[C@H](Cn3c(=O)[nH]c4ccccc4c3=O)CC2)CC1 [Example 36] | negligible effect |
| COC(=O)N1CCN(C(=O)[C@H]2CC[C@H](Cn3c(=O)n(C)c4ccc(C)nc43)CC2)CC1 [Example 203] | negligible effect |
| O=C(C1CC1)N1CCN(C(=O)[C@H]2CC[C@H](CN3Cc4ccccc4NC3=O)CC2)CC1 [Example 7, 3-[trans-4-(4-Cyclopropanecarbonyl-piperazine-1-carbonyl)cyclohexylmethyl]-3,4-dihydro-1H-quinazolin-2-one] | negligible effect |
| COc1ccc2c(c1)c(=O)n(C[C@H]1CC[C@H](C(=O)N3CCN(C(=O)C(C)OC)CC3)CC1)c(=O)n2C (some centres unmarked) [Example 142] | negligible effect |
| O=c1[nH]c2ccccc2c(=O)n1C[C@H]1CC[C@H](C(=O)N2CCN(c3ncccn3)CC2)CC1 [Example 1, trans-3-[4-(4-Pyrimidin-2-yl-piperazine-1-carbonyl)-cyclohexylmethyl]-1H-quinazoline-2,4-dione] | negligible effect |
| COc1ccc2c(c1)c(=O)n(C[C@H]1CC[C@H](C(=O)Nc3ccc4ncccc4c3)CC1)c(=O)n2C [Example 187] | negligible effect |
